Results on 2 molecules are retold here after publication PMC5667882.

Amino acid sequences for entries named in this document (tags omitted). A change or cut given only in a name is not applied to a line headed by its entry.
UniProt Q869J2: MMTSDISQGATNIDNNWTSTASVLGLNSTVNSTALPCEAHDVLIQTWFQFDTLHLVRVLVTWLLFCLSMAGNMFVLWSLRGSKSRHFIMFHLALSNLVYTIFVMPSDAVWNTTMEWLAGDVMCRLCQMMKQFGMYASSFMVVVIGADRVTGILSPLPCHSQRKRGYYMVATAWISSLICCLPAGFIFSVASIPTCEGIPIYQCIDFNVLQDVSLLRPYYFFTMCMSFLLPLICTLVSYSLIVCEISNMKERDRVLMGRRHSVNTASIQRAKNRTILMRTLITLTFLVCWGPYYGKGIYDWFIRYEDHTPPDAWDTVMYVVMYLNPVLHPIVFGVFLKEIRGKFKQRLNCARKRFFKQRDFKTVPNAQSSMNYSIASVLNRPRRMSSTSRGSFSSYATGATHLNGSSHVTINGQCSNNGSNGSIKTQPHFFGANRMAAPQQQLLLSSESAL
UniProt Q62053: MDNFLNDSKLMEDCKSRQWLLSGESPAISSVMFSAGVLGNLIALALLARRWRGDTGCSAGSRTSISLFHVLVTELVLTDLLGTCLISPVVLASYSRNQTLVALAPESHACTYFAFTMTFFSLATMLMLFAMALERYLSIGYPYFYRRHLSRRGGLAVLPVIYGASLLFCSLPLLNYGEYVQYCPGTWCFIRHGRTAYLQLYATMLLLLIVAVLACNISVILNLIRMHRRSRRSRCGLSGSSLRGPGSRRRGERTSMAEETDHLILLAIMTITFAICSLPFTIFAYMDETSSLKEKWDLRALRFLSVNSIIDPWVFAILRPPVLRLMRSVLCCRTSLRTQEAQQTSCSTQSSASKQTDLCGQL
UniProt D2KZ69: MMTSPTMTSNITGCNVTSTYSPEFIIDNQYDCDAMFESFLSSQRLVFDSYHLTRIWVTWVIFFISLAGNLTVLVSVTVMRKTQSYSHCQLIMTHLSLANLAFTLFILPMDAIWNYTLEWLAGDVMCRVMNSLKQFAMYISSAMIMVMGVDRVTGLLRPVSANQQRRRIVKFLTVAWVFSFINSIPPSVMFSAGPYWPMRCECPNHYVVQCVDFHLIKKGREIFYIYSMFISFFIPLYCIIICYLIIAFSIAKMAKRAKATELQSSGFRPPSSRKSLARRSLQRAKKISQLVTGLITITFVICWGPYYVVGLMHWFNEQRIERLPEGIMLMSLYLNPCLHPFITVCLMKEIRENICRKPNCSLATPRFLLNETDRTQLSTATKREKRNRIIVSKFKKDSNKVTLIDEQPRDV

The target in experiment [1] is V5-tagged Ciona intestinalis gonadotropin-releasing hormone (GnRH) receptor 1 (Ci-GnRHR1) (Ciona intestinalis) (UniProt Q869J2). The experiment in a line: affinity purification with mass spectrometry; Co-IP with anti-V5 antibody from membrane proteins of HEK293MSR cells expressing R1V5 and R4Myc, protease digestion, nano-LC-MS/MS, database assignment.
The target in experiment [2] is prostaglandin E2 (PGE2) receptor 2 (EP2) (mouse (endogenous in OV3121)) (UniProt Q62053). The experiment is described as follows: affinity purification with mass spectrometry; 800 ug OV3121 membrane proteins in RIPA buffer, Co-IP overnight at 4°C with 6 ug rabbit monoclonal anti-EP2 antibody and protein G sepharose, SDS-PAGE, in-gel trypsin/Lys-C digestion with SDC, nano-LC-Orbitrap MS/MS.

Results are given in words; binding and its absence hold for the method and conditions named. In cells and extracts the contact can be indirect. A yes stands for co-enrichment or nearness to the bait. Other partners may have been found.

As to “Myc-tagged Ciona intestinalis gonadotropin-releasing hormone (GnRH) receptor 4 (Ci-GnRHR4) (from UniProt D2KZ69)”, the binding result in experiment [1] was “binds”.

B1: calcitonin (CT) receptor (CTR) (receptor, UniProt Q60755 42-533)
chain: APTNLTDSGLDQEPFLYLVGRKKLLDAQYKCYDRIHQLPSYEGEGLYCNRTWDGWMCWDDTPAGATAYQHCPDYFPDFDTAEKVSKYCDENGEWFRHPDSNRTWSNYTLCNAFTSEKLQNAYVLYYLALVGHSLSIAALVASMLIFWIFKNLSCQRVTLHKHMFLTYILNSIIIIIHLVEVVPNGDLVRRDPMHIFHHNTHMWTMQWELSPPLPLSAHEGKMDPHASEVISCKVLHFLHQYMMSCNYFWMLCEGIYLHTLIVMAVFTDEQRLRWYYLLGWGFPIVPTIIHAITRALYYNDNCWLSAETHLLYIIHGPVMVALVVNFFFLLNIVRVLVTKMRQTHEAESYMYLKAVKATMVLVPLLGIQFVVFPWRPSNKVLGKIYDYLMHSLIHFQGFFVATIYCFCNHEVQVTLKRQWTQFKIQWSQRWGRRRRPTNRVVSAPRAVAFAEPDGLPIYICHQEPRNPPISNNEGEESTEMIPMNVIQQDASA
In the case of B1, the binding entry in experiment [2] is “binds”.
